Assay results published in paper PMC7820495.
No constants are given. Whether binding was seen depends on the method and setting. In cells and extracts the contact can be indirect. A result given as binding can be weak or reduced; the word gives no strength.

Sequences of proteins named here, by UniProt entry; tags and fusion partners are left off. A change or cut given only in a name is not applied to a line headed by its entry.
UniProt Q8IQC6: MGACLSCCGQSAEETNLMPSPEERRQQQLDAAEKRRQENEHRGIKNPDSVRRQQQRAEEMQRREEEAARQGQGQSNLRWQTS
UniProt Q7KN62: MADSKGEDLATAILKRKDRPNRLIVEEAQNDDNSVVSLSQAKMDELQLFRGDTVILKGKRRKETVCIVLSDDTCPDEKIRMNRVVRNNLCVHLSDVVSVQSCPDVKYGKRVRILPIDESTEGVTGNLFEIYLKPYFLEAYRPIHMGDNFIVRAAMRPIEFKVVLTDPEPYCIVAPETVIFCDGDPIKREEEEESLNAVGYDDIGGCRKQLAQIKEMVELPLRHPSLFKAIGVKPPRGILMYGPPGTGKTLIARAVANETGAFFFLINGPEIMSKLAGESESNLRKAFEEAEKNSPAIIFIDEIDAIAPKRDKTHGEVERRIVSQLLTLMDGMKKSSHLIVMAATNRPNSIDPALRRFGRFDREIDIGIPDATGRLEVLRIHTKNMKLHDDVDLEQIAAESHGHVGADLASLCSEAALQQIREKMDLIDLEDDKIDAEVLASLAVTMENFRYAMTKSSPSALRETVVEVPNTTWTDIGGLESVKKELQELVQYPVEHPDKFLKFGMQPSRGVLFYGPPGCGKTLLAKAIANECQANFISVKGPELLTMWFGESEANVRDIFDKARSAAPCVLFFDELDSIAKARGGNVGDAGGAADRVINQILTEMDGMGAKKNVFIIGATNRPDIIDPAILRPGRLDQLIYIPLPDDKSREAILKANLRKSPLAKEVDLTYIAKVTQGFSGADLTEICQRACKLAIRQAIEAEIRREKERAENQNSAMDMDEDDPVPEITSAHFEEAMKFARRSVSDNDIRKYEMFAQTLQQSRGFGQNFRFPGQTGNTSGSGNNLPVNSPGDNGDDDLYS

Target: GST-SVIP (Drosophila SVIP, CG32039) (Drosophila) (UniProt Q8IQC6)
Assay: pull-down; recombinant GST-SVIP left on beads, incubated with VCP-sfGFP protein lysates from whole flies in NP40 buffer for 2 h, washed 3x, immunoblot with anti-VCP and anti-GFP; only the target purified

binding: binds
Substance: VCP^WT-sfGFP (Drosophila VCP tagged with sfGFP at the endogenous locus) (from UniProt Q7KN62 1-801)
